# Measurements taken from paper PMC12339401.
# Sequences of proteins named here, by UniProt entry; tags and fusion partners are left off. A change or cut given only in a name is not applied to a line headed by its entry. Residues count along the entry.
# UniProt Q9Y6I9, residues 28-313: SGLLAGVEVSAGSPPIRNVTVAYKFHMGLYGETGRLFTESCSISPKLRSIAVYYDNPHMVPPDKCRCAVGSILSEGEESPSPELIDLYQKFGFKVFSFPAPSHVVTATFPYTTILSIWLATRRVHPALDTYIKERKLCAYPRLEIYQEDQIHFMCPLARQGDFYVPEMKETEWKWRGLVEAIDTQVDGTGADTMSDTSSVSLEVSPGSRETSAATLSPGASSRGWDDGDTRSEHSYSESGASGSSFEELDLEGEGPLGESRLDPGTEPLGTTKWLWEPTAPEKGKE
# UniProt Q14318, residues 1-391: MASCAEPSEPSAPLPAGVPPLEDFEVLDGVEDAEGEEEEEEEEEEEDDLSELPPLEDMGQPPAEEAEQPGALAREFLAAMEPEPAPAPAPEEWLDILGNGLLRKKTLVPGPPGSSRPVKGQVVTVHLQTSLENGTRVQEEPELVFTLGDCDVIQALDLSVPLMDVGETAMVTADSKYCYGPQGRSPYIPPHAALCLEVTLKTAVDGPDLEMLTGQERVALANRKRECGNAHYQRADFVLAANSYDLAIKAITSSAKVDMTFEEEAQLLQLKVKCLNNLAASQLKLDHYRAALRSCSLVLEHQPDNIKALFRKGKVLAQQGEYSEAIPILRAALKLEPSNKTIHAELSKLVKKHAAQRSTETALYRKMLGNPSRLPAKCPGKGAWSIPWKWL
# UniProt Q9BXK5, residues 1-465: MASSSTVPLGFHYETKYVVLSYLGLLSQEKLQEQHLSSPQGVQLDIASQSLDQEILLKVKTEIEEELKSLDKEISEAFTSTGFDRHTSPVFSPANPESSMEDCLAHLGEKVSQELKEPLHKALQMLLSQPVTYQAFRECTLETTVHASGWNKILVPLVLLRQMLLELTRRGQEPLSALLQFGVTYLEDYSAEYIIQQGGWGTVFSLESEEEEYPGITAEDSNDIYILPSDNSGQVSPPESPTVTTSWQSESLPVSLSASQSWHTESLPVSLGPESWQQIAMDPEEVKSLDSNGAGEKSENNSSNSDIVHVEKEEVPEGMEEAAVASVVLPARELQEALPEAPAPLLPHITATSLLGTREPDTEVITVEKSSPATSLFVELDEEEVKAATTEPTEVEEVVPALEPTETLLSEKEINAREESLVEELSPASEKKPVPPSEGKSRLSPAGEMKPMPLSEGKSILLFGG
# UniProt O60238, residues 1-182: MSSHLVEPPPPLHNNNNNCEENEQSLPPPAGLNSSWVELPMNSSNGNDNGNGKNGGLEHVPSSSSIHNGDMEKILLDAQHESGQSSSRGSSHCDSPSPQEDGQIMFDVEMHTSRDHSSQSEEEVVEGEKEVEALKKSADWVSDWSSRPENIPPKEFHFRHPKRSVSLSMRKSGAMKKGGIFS
# UniProt Q86VR2, residues 250-466: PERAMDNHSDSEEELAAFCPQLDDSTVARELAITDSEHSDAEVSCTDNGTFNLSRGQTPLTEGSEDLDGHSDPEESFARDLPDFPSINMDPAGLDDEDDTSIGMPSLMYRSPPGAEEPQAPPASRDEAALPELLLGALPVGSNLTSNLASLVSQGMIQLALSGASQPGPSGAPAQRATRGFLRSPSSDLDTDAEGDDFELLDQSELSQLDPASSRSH
# Legend:
# [1] = target: GST-TEX264 (residues 28–313) (human) (UniProt Q9Y6I9); experiment: microscopy-based bead assay; agarose beads coated with GST-tagged TEX264 or FKBP8, incubated with GFP-tagged FIP200 C-terminal region and mCherry-tagged WIPI2d together; both purified
# [2] = target: FKBP8 (residues 1–391)-GST (human) (UniProt Q14318); experiment: as above
# [3] = target: BCL2L13(1–465)-GST (human) (UniProt Q9BXK5); experiment: microscopy-based bead assay; GST-tagged cargo receptors on beads, GFP-tagged FIP200-CTR or full-length FIP200 in solution, with the kinases TBK1, MBP-ULK1, CK2 or Src (Y530F) and ATP/MgCl2; both purified
# NIX(1–182)-GST (human) [4] = target: NIX(1–182)-GST (human) (UniProt O60238); experiment: as above
# FUNDC1(1–50)-GST (human) [5] = target: T1, FUNDC1(1–50)-GST (human) (UniProt Q8IVP5); experiment: as above
# T1 sequence: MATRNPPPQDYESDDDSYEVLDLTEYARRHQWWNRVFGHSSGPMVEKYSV
# [6] = target: BCL2L13(1–465)-GST (human) (UniProt Q9BXK5); experiment: microscopy-based bead assay; GST-tagged cargo receptors on beads, GFP-tagged FIP200-CTR or full-length FIP200 in solution, in the presence of lambda protein phosphatase; both purified
# NIX(1–182)-GST (human) [7] = target: NIX(1–182)-GST (human) (UniProt O60238); experiment: as above
# FUNDC1(1–50)-GST (human) [8] = target: T1, FUNDC1(1–50)-GST (human); experiment: as above
# [9] = target: BCL2L13(1–465)-GST (human) (UniProt Q9BXK5); experiment: microscopy-based bead assay; GST-tagged bait on Glutathione Sepharose 4B beads, GFP- or mCherry-tagged prey in solution, confocal imaging; both purified
# [10] = target: BCL2L13-GST with mutated LIR/FIR motifs (human) (UniProt Q9BXK5); experiment: as above
# [11] = target: GST-TEX264 (residues 28–313) (human) (UniProt Q9Y6I9); experiment: as above
# NIX(1–182)-GST (human) [12] = target: NIX(1–182)-GST (human) (UniProt O60238); experiment: as above
# [13] = target: FKBP8 (residues 1–391)-GST (human) (UniProt Q14318); experiment: as above
# [14] = target: T2, FUNDC1 Y18A/L21A (ΔLIR)-GST (human) (UniProt Q8IVP5); experiment: as above
# T2 sequence: T1 sequence with Y18A, L21A
# [15] = target: T3, CCPG1 (residues 1–212)-GST (human) (UniProt Q9ULG6); experiment: as above
# T3 sequence: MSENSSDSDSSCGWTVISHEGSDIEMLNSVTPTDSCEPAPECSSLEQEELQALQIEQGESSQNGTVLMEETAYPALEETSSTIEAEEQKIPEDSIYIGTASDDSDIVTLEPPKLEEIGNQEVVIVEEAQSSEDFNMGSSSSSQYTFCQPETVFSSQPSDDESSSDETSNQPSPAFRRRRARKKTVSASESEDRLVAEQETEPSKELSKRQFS
# [16] = target: GST-FAM134C (residues 250–466) (human) (UniProt Q86VR2); experiment: as above
# FUNDC1(1–50)-GST (human) [17] = target: T1, FUNDC1(1–50)-GST (human); experiment: as above
Substance,binding [1],binding [2],binding [3],binding (NIX(1–182)-GST (human) [4]),binding (FUNDC1(1–50)-GST (human) [5]),binding [6],binding (NIX(1–182)-GST (human) [7]),binding (FUNDC1(1–50)-GST (human) [8]),binding [9],binding [10],binding [11],binding (NIX(1–182)-GST (human) [12]),binding [13],binding [14],binding [15],binding [16],binding (FUNDC1(1–50)-GST (human) [17])
"GFP-FIP200 C-terminal region (CTR), residues 1429–1591 (from UniProt Q8TDY2-2) (domain or fragment)",binds,binds,binds,no binding,binds,binds,no binding,binds,binds,no binding,binds,no binding,binds,no binding,binds,binds,binds
mCherry–WIPI2d,,,,,,,,,,,,,,,no binding,,

# Where a chain is given by its changes, count along the chain named. These are yes or no findings as the source states them, for the method shown. For part of these data: Binding calls can cover weak binding; strength is not graded here. For part of these data: Tags and fused reporters may be left off the sequences shown.
